The source of these data is article PMC10932423.

Chains of the proteins cited; added tags and fusions are not shown. Lines headed by an entry give the natural chain unless they say otherwise; changes in a name come on top. A line that says so, or that is headed by a name, gives the form on record, which may keep a tag or linker. Residues count along the entry.
GST-tagged LRR domain of polycystin-1 (GST-LRR WT) (P98161, residues 24-176): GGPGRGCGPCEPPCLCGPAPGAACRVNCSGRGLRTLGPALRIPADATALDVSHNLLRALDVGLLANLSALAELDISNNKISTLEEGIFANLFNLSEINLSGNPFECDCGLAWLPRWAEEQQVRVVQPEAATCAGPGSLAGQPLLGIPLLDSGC
GST-tagged LRR domain of polycystin-1 with the E107A mutation (P98161, form named): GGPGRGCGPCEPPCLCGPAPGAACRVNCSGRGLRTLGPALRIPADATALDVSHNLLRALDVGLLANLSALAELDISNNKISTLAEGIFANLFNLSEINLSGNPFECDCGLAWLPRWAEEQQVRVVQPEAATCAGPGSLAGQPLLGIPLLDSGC
UniProt O15230: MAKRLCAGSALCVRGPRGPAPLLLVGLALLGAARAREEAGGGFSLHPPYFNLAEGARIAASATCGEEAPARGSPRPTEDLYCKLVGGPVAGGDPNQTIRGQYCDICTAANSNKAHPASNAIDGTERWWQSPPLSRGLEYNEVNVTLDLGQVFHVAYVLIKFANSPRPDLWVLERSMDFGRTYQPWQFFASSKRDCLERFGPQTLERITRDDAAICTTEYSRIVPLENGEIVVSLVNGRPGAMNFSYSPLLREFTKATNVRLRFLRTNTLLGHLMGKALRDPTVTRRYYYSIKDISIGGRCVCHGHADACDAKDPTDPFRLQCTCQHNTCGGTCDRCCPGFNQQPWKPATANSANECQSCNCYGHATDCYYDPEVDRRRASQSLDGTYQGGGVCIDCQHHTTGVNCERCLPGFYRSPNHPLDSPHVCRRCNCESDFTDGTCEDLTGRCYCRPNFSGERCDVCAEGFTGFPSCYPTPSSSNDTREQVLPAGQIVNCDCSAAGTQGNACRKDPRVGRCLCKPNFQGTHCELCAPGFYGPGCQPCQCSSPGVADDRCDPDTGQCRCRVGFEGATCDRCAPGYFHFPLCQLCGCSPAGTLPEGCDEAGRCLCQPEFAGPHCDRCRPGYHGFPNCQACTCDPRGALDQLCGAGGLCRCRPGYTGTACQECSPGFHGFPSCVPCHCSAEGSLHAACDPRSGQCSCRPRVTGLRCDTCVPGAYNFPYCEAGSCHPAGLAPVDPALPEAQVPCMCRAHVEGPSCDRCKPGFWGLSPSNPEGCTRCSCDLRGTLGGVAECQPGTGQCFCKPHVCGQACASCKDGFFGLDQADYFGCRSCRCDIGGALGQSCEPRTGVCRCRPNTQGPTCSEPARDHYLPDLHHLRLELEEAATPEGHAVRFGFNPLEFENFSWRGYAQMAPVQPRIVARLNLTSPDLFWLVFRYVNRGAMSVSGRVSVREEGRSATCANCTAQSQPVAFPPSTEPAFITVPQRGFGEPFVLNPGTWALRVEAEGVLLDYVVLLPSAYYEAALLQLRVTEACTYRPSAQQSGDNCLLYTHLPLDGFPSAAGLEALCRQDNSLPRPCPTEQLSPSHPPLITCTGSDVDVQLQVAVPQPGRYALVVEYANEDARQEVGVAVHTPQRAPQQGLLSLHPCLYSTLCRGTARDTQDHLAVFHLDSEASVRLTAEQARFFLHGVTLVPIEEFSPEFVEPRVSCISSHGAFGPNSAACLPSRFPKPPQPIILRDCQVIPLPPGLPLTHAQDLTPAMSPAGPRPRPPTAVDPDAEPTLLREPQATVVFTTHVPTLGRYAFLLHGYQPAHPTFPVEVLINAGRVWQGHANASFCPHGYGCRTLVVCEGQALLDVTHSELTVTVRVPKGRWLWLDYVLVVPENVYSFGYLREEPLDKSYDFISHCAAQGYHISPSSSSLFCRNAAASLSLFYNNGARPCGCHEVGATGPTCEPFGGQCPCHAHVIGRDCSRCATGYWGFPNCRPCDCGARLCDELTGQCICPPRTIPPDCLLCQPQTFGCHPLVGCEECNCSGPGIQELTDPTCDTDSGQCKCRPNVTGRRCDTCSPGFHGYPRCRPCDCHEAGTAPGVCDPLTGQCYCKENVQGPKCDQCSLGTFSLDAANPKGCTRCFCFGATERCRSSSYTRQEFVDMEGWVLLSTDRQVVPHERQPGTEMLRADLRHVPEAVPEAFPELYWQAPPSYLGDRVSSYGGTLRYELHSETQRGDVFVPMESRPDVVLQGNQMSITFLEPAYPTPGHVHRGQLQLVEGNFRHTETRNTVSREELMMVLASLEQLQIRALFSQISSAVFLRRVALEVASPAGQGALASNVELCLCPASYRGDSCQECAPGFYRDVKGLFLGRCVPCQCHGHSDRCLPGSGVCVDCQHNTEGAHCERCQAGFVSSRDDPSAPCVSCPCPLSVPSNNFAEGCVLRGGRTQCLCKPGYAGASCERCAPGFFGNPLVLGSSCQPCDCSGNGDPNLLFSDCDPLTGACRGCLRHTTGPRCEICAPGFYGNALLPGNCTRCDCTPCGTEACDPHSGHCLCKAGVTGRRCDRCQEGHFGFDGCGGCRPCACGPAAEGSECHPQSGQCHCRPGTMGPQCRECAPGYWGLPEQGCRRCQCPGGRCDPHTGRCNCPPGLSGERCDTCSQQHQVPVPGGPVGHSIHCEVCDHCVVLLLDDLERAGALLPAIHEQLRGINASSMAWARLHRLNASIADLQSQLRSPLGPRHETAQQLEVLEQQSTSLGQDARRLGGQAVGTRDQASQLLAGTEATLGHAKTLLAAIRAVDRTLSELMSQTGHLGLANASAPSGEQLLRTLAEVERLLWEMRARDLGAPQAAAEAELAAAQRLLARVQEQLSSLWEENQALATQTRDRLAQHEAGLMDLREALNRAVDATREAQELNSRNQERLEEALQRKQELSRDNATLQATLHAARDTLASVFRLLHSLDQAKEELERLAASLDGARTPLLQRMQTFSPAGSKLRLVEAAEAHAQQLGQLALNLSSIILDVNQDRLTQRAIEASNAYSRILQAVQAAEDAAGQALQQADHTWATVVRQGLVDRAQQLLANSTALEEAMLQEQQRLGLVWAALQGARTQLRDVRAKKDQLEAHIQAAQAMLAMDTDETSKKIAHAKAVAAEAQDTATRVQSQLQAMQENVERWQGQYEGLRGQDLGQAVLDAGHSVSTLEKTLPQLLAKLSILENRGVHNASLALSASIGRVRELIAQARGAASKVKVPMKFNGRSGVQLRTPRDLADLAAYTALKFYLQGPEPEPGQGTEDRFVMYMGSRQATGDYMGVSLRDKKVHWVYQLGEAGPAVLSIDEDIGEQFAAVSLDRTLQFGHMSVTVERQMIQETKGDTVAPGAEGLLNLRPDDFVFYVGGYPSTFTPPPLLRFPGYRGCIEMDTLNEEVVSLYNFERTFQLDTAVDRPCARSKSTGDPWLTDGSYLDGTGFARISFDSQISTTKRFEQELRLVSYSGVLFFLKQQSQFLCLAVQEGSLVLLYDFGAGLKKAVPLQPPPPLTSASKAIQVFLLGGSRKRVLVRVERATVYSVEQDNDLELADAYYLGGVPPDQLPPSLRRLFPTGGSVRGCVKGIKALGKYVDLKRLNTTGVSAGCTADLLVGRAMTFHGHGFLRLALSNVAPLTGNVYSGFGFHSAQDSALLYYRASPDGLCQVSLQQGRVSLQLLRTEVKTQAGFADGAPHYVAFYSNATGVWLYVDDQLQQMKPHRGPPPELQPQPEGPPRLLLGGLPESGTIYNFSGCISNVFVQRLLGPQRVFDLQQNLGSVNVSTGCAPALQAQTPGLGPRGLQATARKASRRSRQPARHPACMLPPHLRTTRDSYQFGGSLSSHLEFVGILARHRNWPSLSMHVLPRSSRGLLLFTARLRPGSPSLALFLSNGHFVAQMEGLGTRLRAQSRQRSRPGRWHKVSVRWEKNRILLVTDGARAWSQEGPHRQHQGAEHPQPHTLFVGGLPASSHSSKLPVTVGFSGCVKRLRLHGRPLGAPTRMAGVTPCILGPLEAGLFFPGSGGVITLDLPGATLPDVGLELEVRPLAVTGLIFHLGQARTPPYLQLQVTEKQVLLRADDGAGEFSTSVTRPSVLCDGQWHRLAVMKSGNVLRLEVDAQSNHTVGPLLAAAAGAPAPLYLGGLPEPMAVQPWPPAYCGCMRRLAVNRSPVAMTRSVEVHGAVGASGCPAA

For assay [1], the target named is GST-tagged LRR domain of polycystin-1 (GST-LRR WT) (human) (UniProt P98161). Put plainly: pull-down; co-purification: purified GST-LRR (or GST, or mutant) bound to glutathione resin; laminin-511 (~50 ug) added, 2 h at 4 °C; 50 mM Tris-HCl pH 8.0, 200 mM NaCl, 1 mM DTT; washed twice; eluted with 20 mM reduced glutathione; both purified.
The target in assay [2] is GST-tagged LRR domain of polycystin-1 with the E107A mutation (human) (UniProt P98161). Described as above.

Results are given in words; binding and its absence hold for the method and conditions named. Some entries that bind do so weakly or less than the wild type.

With “laminin-511 (α5β1γ1) (from UniProt O15230 36-3695; P07942 22-1786; P11047 34-1609) (complex)”, the results for the binding result in assay [1] and in assay [2] were “binds” and “no binding (tested: ~50 ug laminin-511 added)”, respectively.
